Experimental data: EP0311632B1, “SURFACE ACTIVE LACTAMS” (priority 1986, dated 1988)

Experiment: Anti-corrosion testing in hydrochloric acid
Details: 16 hours; for Weight Loss: 0.4 g test compound in 100 mls 15% hydrochloric acid, 80°C

## O=C1CCCN1C1CCCCC1 [N-cyclohexyl pyrrolidone, reference compound]
  Weight Loss: 10.97%

## CCCCCCCCCCN1CCCC1=O [N-decyl-2-pyrrolidone]
  Weight Loss: 4.10%

## CCCCCCCCCCCCN1CCCC1=O [N-dodecyl-2-pyrrolidone]
  Weight Loss: 5.95%

## CCN1CCCC1=O [N-ethyl pyrrolidone]
  Weight Loss: 14.56%

## O=C1CCCN1CCO [N-hydroxyethyl pyrrolidone]
  Weight Loss: 15.57%

## COCCN1CCCC1=O [N-methoxyethyl pyrrolidone]
  Weight Loss: 14.16%

## CN1CCCC1=O [N-methyl pyrrolidone]
  Weight Loss: 14.55%

## CCCCCCCCCN1CCCC1=O [N-nonyl-2-pyrrolidone]
5% HCl solution, interpolation of curve of Figure 1
  corrosion inhibition (% weight loss curve): at least as effective as the N-octyl or the N-decyl species

## CCCCCCCCN1CCCC1=O [N-octyl-2-pyrrolidone]
  Weight Loss: 4.20%

## CCCCCCCCCCCCCCN1CCCC1=O [N-tetradecyl-2-pyrrolidone]
  Weight Loss: 14.82%

## C#CCO [Propargyl alcohol]
  Weight Loss: 0.21%
